Most values lie at the floor of the assay. Slopes are relative: functional sequences can read slightly below zero.
test system: Saccharomyces cerevisiae PS128 hsf1 delta, HSF1(1-493) fusion; experiment: growth estimate (transactivation domain function in HSF1 fusion, heat-shock survival) (a.u. (slope of normalised read count over time)); higher = stronger growth at 37°C, i.e. more transactivation activity; details: library: random library
Procedure: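 Random 60-nt DNA library encoding peptides of up to 20 aa, fused to the C-terminus of yeast HSF1 residues 1-493 (C-terminal TAD deleted) and expressed from the native HSF1 promoter on a CEN plasmid in hsf1-deleted S. cerevisiae PS128. Cells were selected at 37°C on -trp 5-FOA plates for 0, 2, 4, 6 and 8 days and amplicons were sequenced. Growth estimate is the slope of a robust linear fit of total-sum-normalised read counts (normalised to the first time point) over time, using at least 2 replicates. Sequences are classed functional (TAD activity) above a threshold of -0.13, set from stop-codon control sequences.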

| Substance | growth estimate |
| --- | --- |
| SVLCRKYYVNSVMPTEHLPV | < -0.25 |
| AVLIQGGQWALAQGNGVQAS | < -0.25 |
| VGLDLQVNSTRHPHLEGTSN | < -0.25 |
| TTGSV | < -0.25 |
| GSGC | < -0.25 |
| IEP | < -0.25 |
| RLEVINVGFLKGWVQASQTI | < -0.25 |
| GDGV | < -0.25 |
| AVIQL | -0.198 |
| VVPEGVHCERP | < -0.25 |
| KVNVLSFVKGSPGTAGFILC | < -0.25 |
| YIPVCADAC | -0.243 |
| QGKFAKVLVAVVDGGVRRYV | < -0.25 |
| FTVEQDEVGFEFHGMLLFWG | < -0.25 |
| GSMELE | < -0.25 |
| GGMLGIVFQRLAKARRTGYR | < -0.25 |
| IEFHIHELVRETYAGSVHLP | < -0.25 |
| GSSASRALNCYVSILYLSGT | < -0.25 |
| LSIMCRFGLRAR | < -0.25 |
| GEGNAPCGWESYRRGRSTMA | < -0.25 |
| RGFVCRMQCWNKPGRRRREV | < -0.25 |

| Substance | growth estimate |
| --- | --- |
| MATNRDFAMGEL | < -0.25 |
| RVTKGRRLTTTTPRLFMVDR | < -0.25 |
| EQAPL | < -0.25 |
| CLLVGFLSSSTDFGLLESGR | < -0.25 |
| RVH | < -0.25 |
| GQLFLWGMEWSW | < -0.25 |
| DVLCRQRLQ | < -0.25 |
| VFTCHNELTEKDNVRKMVCL | < -0.25 |
| HESRRVNGVSGIAPGGTSSA | < -0.25 |
| KDRPILGAKRAACSGESPMA | < -0.25 |
| HLATRIAYLVLVRKRRLRTS | < -0.25 |
| RILTRLGYGVYIILPLGIRV | < -0.25 |
| RNWWLI | < -0.25 |
| KPGGNRCARTDT | < -0.25 |
| IIM | < -0.25 |
| LRFD | -0.246 |
| HRGCQL | < -0.25 |
| MKELTPFV | -0.161 |
| HVSSRFADEEDRLCY | < -0.25 |
| EQPS | < -0.25 |
| ELCRRGKLSTDEGLASP | < -0.25 |

Reformatted with tabs: entries from further up.
Substance	growth estimate
HVSSRFADEEDRLCY	< -0.25
EQPS	< -0.25
ELCRRGKLSTDEGLASP	< -0.25

Additional results follow.

| Substance | growth estimate |
| --- | --- |
| RRSDFVKVMVSRC | < -0.25 |
| TVNSPMVCSPETISIN | < -0.25 |
| KTASLRRL | < -0.25 |
| MGHAALRECSTLIIPTLQST | < -0.25 |
| SCNASKHSLKNPVENATRTP | < -0.25 |
| GFNTRSGPREGGGEDRPKND | < -0.25 |
| TKVPGRDSTPL | < -0.25 |
| SICGVTSVSGPGRSRRWPHL | < -0.25 |
| YTKSPGGSSLWGTRSRRTWP | < -0.25 |
| VHPNSLVPAKQVSAH | < -0.25 |
| GGDKQVS | < -0.25 |
| CGIWARWGPACTTLRQQQTH | < -0.25 |
| QDLRSLPRERNGEKYCGTGR | < -0.25 |
| ANSTPGVADYYGPLRTGCEV | < -0.25 |
| EFRSSSVHEAQQ | < -0.25 |
| WLRYSFKSGNIEIGPYNGQA | < -0.25 |
| LSREPRAPPEETRVMGFLAG | < -0.25 |
| ELSPDGVTFIEEPPWSAFFD | -0.21 |
| LHSSGPGHLALITYKIVFCR | < -0.25 |
| HLLLWCRRFSSMRYPCTFCI | < -0.25 |
| QICDWPQSLAG | < -0.25 |

A stretch taken from the entries so far, as a working copy:

| Substance | growth estimate |
| --- | --- |
| TKVPGRDSTPL | < -0.25 |
| SICGVTSVSGPGRSRRWPHL | < -0.25 |

(next part)

| Substance | growth estimate |
| --- | --- |
| CQVACVGSSYEGKYL | < -0.25 |
| KDEEHDG | < -0.25 |
| IKRWF | < -0.25 |
| DSFDPR | -0.231 |
| TTPILRSHYLEGDK | < -0.25 |
| GLSDAIEV | < -0.25 |
| SWQVSSICKLGNCLGGCIQT | < -0.25 |
| EDWDSGDVTA | < -0.25 |
| LWCEMAV | < -0.25 |
| RIRTPQGNRTRPKA | < -0.25 |
| TACVGL | < -0.25 |
| VVEESLCYAGR | < -0.25 |
| TSTRSHLGLGNRHHGGVTGG | -0.243 |
| GVENR | < -0.25 |
| SGCYD | < -0.25 |
| LSV | < -0.25 |
| GTRVEPKVA | < -0.25 |
| GGDTVMGTSPY | < -0.25 |
| VTDIRLTESIRSCVTKSLRT | < -0.25 |
| EKDGKNE | < -0.25 |
